Values from PubChem BioAssay AID1259254 (NCATS, 2017)
Aim: 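Finding genes that stop cells copying their DNA twice in one cycle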 (primary screen). Cell system: human HCT116 colorectal cancer cells. Reagents: single siRNA against human genes. Duration: 3 days. Measured: 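Nuclei stained with Hoechst and imaged; cell-cycle phase assigned by DNA content; G2 share scaled per plate, non-targeting siRNA 0%, GMNN siRNA 100%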. Scale: G2 robust z-score and G2 cells, % of GMNN control: higher = more G2 cells, more excess DNA replication; raw share of cells in G2: higher = larger share of cells with G2 DNA content. Hit rule: 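An siRNA counts as active if its G2 robust z-score lies at least 5 MADs above the screen median; here such calls match roughly 38% of GMNN control or more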.
The deposit covers about 59,000 reagents; this is a random part of them. Over the whole deposit, about 1,550 (2.6%) are marked active. 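G2 share is only a proxy for re-replication; each gene was hit by three separate siRNAs, and active genes were retested.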 Raw values vary from plate to plate and are shown uncorrected. The numbers tell different reagents against one gene apart. The record does not give: the amount of reagent.

The first 5 entries, ahead of the listing:
gene knocked down	reagent no.	G2 robust z-score	G2 cells, % of GMNN control	raw share of cells in G2 (%)	outcome
RASGRF1 (GeneID 5923)	1	5.1	38.8	18.3	active
RASGRF1 (GeneID 5923)	2	3.49	27.5	15.2	inactive
RASGRF1 (GeneID 5923)	3	0.539	6.76	6.39	inactive
SERPINB8 (GeneID 5271)	1	1.57	14	9.34	inactive
SERPINB8 (GeneID 5271)	2	-1.44	-7.15	2.15	inactive

Results, from the first entry:
gene knocked down	reagent no.	G2 robust z-score	G2 cells, % of GMNN control	raw share of cells in G2 (%)	outcome
RASGRF1 (GeneID 5923)	1	5.1	38.8	18.3	active
RASGRF1 (GeneID 5923)	2	3.49	27.5	15.2	inactive
RASGRF1 (GeneID 5923)	3	0.539	6.76	6.39	inactive
SERPINB8 (GeneID 5271)	1	1.57	14	9.34	inactive
SERPINB8 (GeneID 5271)	2	-1.44	-7.15	2.15	inactive
SERPINB8 (GeneID 5271)	3	-1.12	-4.89	2.02	inactive
ENPP3 (GeneID 5169)	1	1	10	8.06	inactive
ENPP3 (GeneID 5169)	2	1.32	12.2	7.99	inactive
ENPP3 (GeneID 5169)	3	2.02	17.2	8.67	inactive
TSPYL4 (GeneID 23270)	1	0.816	8.71	8.4	inactive
TSPYL4 (GeneID 23270)	2	-0.17	1.77	4.87	inactive
TSPYL4 (GeneID 23270)	3	-0.514	-0.649	2.93	inactive
FTL (GeneID 2512)	1	3.73	29.2	19	inactive
FTL (GeneID 2512)	2	0.587	7.09	6.69	inactive
FTL (GeneID 2512)	3	5.09	38.8	18.7	active
DCAF15 (GeneID 90379)	1	-0.294	0.902	4.47	inactive
DCAF15 (GeneID 90379)	2	-1.12	-4.88	1.47	inactive
DCAF15 (GeneID 90379)	3	-0.245	1.24	3.32	inactive
MYH10 (GeneID 4628)	1	-0.31	0.788	5.78	inactive
MYH10 (GeneID 4628)	2	-1.05	-4.41	3.65	inactive
MYH10 (GeneID 4628)	3	-0.567	-1.02	2.86	inactive
PCGF3 (GeneID 10336)	1	-1.13	-5.01	1.86	inactive
PCGF3 (GeneID 10336)	2	-1.24	-5.77	3.42	inactive
PCGF3 (GeneID 10336)	3	0.132	3.89	4.97	inactive
CLTRN (GeneID 57393)	1	-0.477	-0.392	4.19	inactive
CLTRN (GeneID 57393)	2	-0.444	-0.156	4.38	inactive
CLTRN (GeneID 57393)	3	-0.592	-1.2	2.65	inactive
LINC00477 (GeneID 144360)	1	0.254	4.76	5.42	inactive
LINC00477 (GeneID 144360)	2	0.805	8.63	5.58	inactive
LINC00477 (GeneID 144360)	3	-0.532	-0.779	2.8	inactive
KRTAP24-1 (GeneID 643803)	1	-0.135	2.01	4.41	inactive
KRTAP24-1 (GeneID 643803)	2	0.307	5.12	5.12	inactive
KRTAP24-1 (GeneID 643803)	3	3.38	26.7	10.9	inactive
SLC8A1 (GeneID 6546)	1	-1.2	-5.45	3.85	inactive
SLC8A1 (GeneID 6546)	2	-0.568	-1.03	4.19	inactive
SLC8A1 (GeneID 6546)	3	-0.837	-2.92	2.99	inactive
GARRE1 (GeneID 9710)	1	2.25	18.8	13.8	inactive
GARRE1 (GeneID 9710)	2	-0.615	-1.36	3.38	inactive
GARRE1 (GeneID 9710)	3	-0.74	-2.24	2.59	inactive
PNRC2 (GeneID 55629)	1	-0.299	0.861	4.86	inactive
PNRC2 (GeneID 55629)	2	-0.806	-2.71	3.02	inactive
PNRC2 (GeneID 55629)	3	0.761	8.32	5.79	inactive
PRKCB (GeneID 5579)	1	-0.926	-3.55	4.44	inactive
PRKCB (GeneID 5579)	2	-1.21	-5.57	3.53	inactive
PRKCB (GeneID 5579)	3	-1.17	-5.26	2.17	inactive
KCNE3 (GeneID 10008)	1	3.48	27.5	15.3	inactive
KCNE3 (GeneID 10008)	2	2.68	21.9	12.2	inactive
KCNE3 (GeneID 10008)	3	-0.886	-3.27	3.1	inactive
OTOP2 (GeneID 92736)	1	-0.868	-3.14	2.75	inactive
OTOP2 (GeneID 92736)	2	-0.947	-3.69	1.84	inactive
OTOP2 (GeneID 92736)	3	3.24	25.7	11.1	inactive
GEMIN4 (GeneID 50628)	1	0.573	7	6.53	inactive
GEMIN4 (GeneID 50628)	2	2.71	22.1	12.9	inactive
GEMIN4 (GeneID 50628)	3	-1.02	-4.23	1.92	inactive
LCN12 (GeneID 286256)	1	1.67	14.7	12.3	inactive
LCN12 (GeneID 286256)	2	0.302	5.09	6.95	inactive
LCN12 (GeneID 286256)	3	0.614	7.29	6.95	inactive
LPIN3 (GeneID 64900)	1	-0.818	-2.79	3.37	inactive
LPIN3 (GeneID 64900)	2	1.04	10.3	9.22	inactive
LPIN3 (GeneID 64900)	3	-1.25	-5.85	1.15	inactive
NPEPPS (GeneID 9520)	1	1.64	14.5	10.6	inactive
NPEPPS (GeneID 9520)	2	-0.52	-0.689	4.66	inactive
NPEPPS (GeneID 9520)	3	-0.797	-2.64	2.93	inactive
RGS9BP (GeneID 388531)	1	-0.0388	2.69	4.7	inactive
RGS9BP (GeneID 388531)	2	0.254	4.75	5.47	inactive
RGS9BP (GeneID 388531)	3	-0.137	2	5.49	inactive
SERTAD2 (GeneID 9792)	1	-0.806	-2.7	2.63	inactive
SERTAD2 (GeneID 9792)	2	-0.64	-1.53	5.3	inactive
SERTAD2 (GeneID 9792)	3	-0.682	-1.83	2.57	inactive
